Changes are numbered by the printed parent chain. No constants are given. Whether binding was seen depends on the method and setting. Some results given as binding are weak or reduced against the parent protein; the word gives no strength.
Legend:
[1] = target: T1, soluble human FcRH5 protein fragment (human) (UniProt Q96RD9); experiment: BIACORE
T1 sequence: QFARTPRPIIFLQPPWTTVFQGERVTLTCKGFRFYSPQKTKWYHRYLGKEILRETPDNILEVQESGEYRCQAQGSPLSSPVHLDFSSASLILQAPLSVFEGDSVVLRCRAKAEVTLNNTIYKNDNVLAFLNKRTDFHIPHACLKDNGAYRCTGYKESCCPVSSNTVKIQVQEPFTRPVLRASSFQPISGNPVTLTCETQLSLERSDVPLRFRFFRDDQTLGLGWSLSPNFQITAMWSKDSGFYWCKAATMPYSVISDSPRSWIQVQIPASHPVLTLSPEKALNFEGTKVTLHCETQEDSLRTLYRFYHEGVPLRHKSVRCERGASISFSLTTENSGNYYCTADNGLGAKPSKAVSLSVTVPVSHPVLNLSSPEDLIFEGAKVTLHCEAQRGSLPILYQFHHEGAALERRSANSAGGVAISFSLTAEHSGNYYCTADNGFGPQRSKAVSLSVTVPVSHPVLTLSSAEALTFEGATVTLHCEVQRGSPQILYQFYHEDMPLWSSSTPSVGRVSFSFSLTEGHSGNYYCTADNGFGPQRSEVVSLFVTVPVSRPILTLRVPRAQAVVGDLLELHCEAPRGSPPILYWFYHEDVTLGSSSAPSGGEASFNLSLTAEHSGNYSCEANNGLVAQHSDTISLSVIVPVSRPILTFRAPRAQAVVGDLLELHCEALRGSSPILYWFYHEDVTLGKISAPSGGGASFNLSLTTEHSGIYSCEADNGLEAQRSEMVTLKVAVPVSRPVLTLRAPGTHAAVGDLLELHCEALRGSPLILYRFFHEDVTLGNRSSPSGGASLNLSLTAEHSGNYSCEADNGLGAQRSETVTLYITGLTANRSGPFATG

[2] = target: T1, soluble human FcRH5 protein fragment (human); experiment: BIACORE after AAPH or light stress
[3] = target: T1, soluble human FcRH5 protein fragment (human); experiment: ELISA

B1: hu1G7.v85/38E4.v1 TDB (bispecific antibody, V domains shown)
VH 1: EVQLVESGPGLVKPSETLSLTCTVSGFSLTRFGVHWVRQPPGKGLEWLGVIWRGGSTDYNAAFVSRLTISKDNSKNQVSLKLSSVTAADTAVYYCSNHYYGSSDYALDNWGQGTLVTVSS
VL 1: DIQMTQSPSSLSASVGDRVTITCKASQDVRNLVVWFQQKPGKAPKLLIYSGSYRYSGVPSRFSGSGSGTDFTLTISSLQPEDFATYYCQQHYSPPYTFGQGTKVEIK
VH 2: EVQLVQSGAEVKKPGASVKVSCKASGFTFTSYYIHWVRQAPGQGLEWIGWIYPENDNTKYNEKFKDRVTITADTSTSTAYLELSSLRSEDTAVYYCARDGYSRYYFDYWGQGTLVTVSS
VL 2: DIVMTQSPDSLAVSLGERATINCKSSQSLLNSRTRKNYLAWYQQKPGQSPKLLIYWTSTRKSGVPDRFSGSGSGTDFTLTISSLQAEDVAVYYCKQSFILRTFGQGTKVEIK
binding [1]: binds | binding [2]: binds

B2: hu1G7.v93/38E4.v1 TDB (bispecific antibody, V domains shown)
VH 1: B1 VH 1 with L29T, S103P
VL 1: B1 VL 1 with R30S
VH 2: B1 VH 2
VL 2: B1 VL 2
binding [1]: binds

B3: F(ab′)2 A (1G7.v85 Fab x 38E4.v1 Fab linked at the hinge Cys) (bispecific antibody, V domains shown)
VH 1: B1 VH 1
VL 1: B1 VL 1
VH 2: B1 VH 2
VL 2: B1 VL 2
modifications: hinge Cys crosslinked
binding [3]: binds
